Measurements published in paper doi:10.1101/2020.07.05.188557.
Results are given in words; binding and its absence hold for the method and conditions named. Binding seen in cells or lysates may run through a third protein. Sequences can lack the tags named with a protein.

Sequences of proteins named here, by UniProt entry; tags and fusion partners are left off. A change or cut given only in a name is not applied to a line headed by its entry.
UniProt Q02774, whole entry, looked up, stated change not applied: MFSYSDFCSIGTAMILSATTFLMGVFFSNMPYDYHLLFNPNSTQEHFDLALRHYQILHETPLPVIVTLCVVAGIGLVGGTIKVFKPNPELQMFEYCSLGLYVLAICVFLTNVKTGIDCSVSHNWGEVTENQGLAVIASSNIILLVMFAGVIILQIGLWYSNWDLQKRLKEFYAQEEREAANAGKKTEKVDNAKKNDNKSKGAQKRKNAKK

Molecular target: T1, Gap1-Cub-GST-6xHA (S. cerevisiae) (UniProt P19145)
T1 sequence: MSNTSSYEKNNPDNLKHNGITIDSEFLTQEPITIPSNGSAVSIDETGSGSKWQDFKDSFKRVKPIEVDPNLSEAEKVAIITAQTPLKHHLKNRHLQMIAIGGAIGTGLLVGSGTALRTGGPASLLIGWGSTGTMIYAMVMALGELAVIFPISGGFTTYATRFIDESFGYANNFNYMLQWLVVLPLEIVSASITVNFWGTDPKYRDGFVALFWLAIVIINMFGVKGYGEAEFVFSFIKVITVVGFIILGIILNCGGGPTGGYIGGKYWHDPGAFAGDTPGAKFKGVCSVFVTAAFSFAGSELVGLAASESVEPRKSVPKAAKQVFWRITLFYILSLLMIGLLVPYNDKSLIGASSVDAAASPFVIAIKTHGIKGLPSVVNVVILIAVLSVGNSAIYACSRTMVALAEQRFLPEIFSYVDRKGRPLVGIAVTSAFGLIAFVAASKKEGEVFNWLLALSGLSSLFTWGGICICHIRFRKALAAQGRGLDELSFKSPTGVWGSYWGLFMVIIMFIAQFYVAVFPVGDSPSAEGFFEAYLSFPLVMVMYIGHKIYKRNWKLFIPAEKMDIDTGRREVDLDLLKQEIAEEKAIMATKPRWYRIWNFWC
Test: split reporter

- binding: no binding
B1: shr3-35-NubA (protein, UniProt Q02774 1-210)
chain: MFSYSDFCSIGTAMILLLLTFLMGVFFSNMPYDYHLLFNPNSTQEHFDLALRHYQILHETPLPVIVTLCVVAGIGLVGGTIKVFKPNPELQMFEYCSLGLYVLAICVFLTNVKTGIDCSVSHNWGEVTENQGLAVIASSNIILLVMFAGVIILQIGLWYSNWDLQKRLKEFYAQEEREAANAGKKTEKVDNAKKNDNKSKGAQKRKNAKK
